The record followed here is patent publication US20080132679A1 (KANEKA, published 2008).

Protein sequences, listed by entry. Tags and fused reporters are not part of them. Residues count along the entry.
UniProt P06213, residues 28-956: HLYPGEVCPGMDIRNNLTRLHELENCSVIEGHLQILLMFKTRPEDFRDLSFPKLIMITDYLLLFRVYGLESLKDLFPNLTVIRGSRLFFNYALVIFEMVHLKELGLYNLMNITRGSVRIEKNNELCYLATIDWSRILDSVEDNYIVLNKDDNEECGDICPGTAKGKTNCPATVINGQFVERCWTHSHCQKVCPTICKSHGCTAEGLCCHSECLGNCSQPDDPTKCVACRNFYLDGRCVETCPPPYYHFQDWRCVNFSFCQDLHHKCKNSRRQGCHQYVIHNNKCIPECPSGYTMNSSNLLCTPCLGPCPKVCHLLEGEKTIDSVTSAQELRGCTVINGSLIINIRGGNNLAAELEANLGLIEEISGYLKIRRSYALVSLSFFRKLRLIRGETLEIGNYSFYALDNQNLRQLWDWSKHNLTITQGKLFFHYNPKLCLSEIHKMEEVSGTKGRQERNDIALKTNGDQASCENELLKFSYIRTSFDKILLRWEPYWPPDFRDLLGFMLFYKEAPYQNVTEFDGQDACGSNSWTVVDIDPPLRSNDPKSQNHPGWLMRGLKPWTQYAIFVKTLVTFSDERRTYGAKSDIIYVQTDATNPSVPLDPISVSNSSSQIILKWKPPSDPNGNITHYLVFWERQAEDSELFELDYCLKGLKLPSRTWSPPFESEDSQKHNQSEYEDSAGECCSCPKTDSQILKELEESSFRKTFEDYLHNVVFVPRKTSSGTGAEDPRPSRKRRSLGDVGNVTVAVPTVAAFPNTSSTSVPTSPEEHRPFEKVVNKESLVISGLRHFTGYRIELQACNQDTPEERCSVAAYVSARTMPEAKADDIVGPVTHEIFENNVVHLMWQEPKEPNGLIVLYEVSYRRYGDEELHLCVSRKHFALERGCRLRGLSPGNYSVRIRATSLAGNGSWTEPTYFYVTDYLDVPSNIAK

These are yes or no findings as the source states them, for the method shown. Some entries that bind do so weakly or less than the wild type.

This assay deals with Recombinant Human Insulin Receptor (28-956) (human) (UniProt P06213). In words: SPR (BIAcore), Examples 8 to 10. For orientation: SPR reads the build-up and loss of mass on a sensor chip optically.

B1: peptide P15 (peptide)
peptide: CASDIVEGIYL
notes: Chemically synthesized; immobilized on a CM5 sensor chip by amine coupling (130 RU) for the Biacore assay; also called Peptide 15
With B1, the binding entry is given as “binds”.

B2: peptide P21 (peptide)
peptide: CQHILGSDIVEGIYL
notes: Chemically synthesized; immobilized on a CM5 sensor chip by amine coupling (270 RU) for the Biacore assay; also called Peptide 21
Turning to B2, the binding entry was “binds”.

B3: peptide P14 (peptide)
peptide: CASDIVEGLYIVLAER
notes: Chemically synthesized by the Fmoc method; immobilized on a CM5 sensor chip by amine coupling (200 RU) for the Biacore assay; also called Peptide 14
On to B3, for which the binding result is listed as “binds”.
